The record followed here is paper PMC3629208.

Amino acid sequences for entries named in this document (tags omitted).
UniProt P31750: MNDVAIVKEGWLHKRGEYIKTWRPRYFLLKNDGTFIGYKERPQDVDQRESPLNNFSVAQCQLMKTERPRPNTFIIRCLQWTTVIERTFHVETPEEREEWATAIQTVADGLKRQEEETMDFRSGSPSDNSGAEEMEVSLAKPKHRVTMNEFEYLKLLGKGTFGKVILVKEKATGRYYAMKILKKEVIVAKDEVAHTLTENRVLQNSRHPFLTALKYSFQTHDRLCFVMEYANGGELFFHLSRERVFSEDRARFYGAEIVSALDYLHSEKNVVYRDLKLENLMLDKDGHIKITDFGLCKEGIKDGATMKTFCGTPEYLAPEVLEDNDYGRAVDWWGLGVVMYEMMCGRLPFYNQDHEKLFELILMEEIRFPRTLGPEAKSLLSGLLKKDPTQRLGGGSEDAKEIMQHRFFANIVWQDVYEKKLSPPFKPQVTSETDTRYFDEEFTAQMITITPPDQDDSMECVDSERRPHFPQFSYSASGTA

These are yes or no findings as the source states them, for the method shown. Binding seen in cells or lysates may run through a third protein. Some results given as binding are weak or reduced against the parent protein; the word gives no strength.

Assay [1] addresses Akt (protein kinase B), Akt1 (mouse (endogenous in Neuro 2A)) (UniProt P31750). In words: co-IP; anti-Akt antibody fixed on the beads by DSS, without DSP-crosslinking, Neuro 2A lysate (control or IGF-stimulated), western blot.
Assay [2] shares this target. The description is as above. The source holds these as a separate data set.
Assay [3] shares this target. In words: co-IP; two-step crosslinking co-IP (DSS-fixed anti-Akt antibody, DSP-crosslinking of the bound complexes) from Neuro 2A lysate, western blot; cells with or without IGF-1 (10 ng/mL, 10 min); band intensity normalized to Akt level. A general note: Immunoblotting shows a protein as a band on a membrane.

B1: ErbB3 binding protein 1 (EBP1, also called proliferation-associated protein 2G4) (protein, UniProt P50580 1-394)
chain: MSGEDEQQEQTIAEDLVVTKYKMGGDIANRVLRSLVEASSSGVSVLSLCEKGDAMIMEETGKIFKKEKEMKKGIAFPTSISVNNCVCHFSPLKSDQDYILKEGDLVKIDLGVHVDGFIANVAHTFVIGVAQGTQVTGRKADVIKAAHLCAEAALRLVKPGNQNTQVTEAWNKVAHSFNCTPIEGMLSHQLKQHVIDGEKTIIQNPTDQQKKDHEKAEFEVHEVYAVDVLVSSGEGKAKDAGQRTTIYKRDPSKQYGLKMKTSRAFFSEVERRFDAMPFTLRAFEDEKKARMGVVECAKHELLQPFNVLYEKEGEFVAQFKFTVLLMPNGPMRITSGPFEPDLYKSEMEVQDAELKALLQSSASRKTQKKKKKKASKTVENATSGETLEENGAGD
Consider B1, for which the values for the binding result in assay [1], in assay [2] and in assay [3] were “no binding (condition: without DSP-crosslinking)”, “binds weakly” and “binds”, respectively.
